# Some of the results follow.
# What was measured:
# Experiment in all cases: glycan array binding signal (z-score within array); higher = stronger binding
# Settings in all cases: glycan notation: IUPAC condensed, linker removed
# [1] = molecular target: GalNAc(a1-3)GalNAc(b1-3)Gal(a1-4)Gal(b1-4)GlcNAc
# In short: (§1)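 The binding signal is a Z-score computed within each array and averaged over linkers. Arrays of the same protein sequence at different concentrations or buffers were also averaged together. Data originate from 3228 arrays in the Consortium for Functional Glycomics database, kept only where the protein sequence was available.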
# [2] = molecular target: GalNAc(b1-3)Gal
# In short: as §1
# [3] = molecular target: GalNAc(b1-3)Gal(a1-4)Gal(b1-4)GlcNAc
# In short: as §1
# [4] = molecular target: GalNAc(b1-3)Gal(a1-4)Gal(b1-4)GlcNAc(b1-3)Gal(b1-4)Glc
# In short: as §1
# [5] = molecular target: GalNAc(b1-3)Gal(a1-6)Gal(b1-4)Glc
# In short: as §1
# [6] = molecular target: GalNAc(b1-3)GalNAc
# In short: as §1
# [7] = molecular target: GalNAc(b1-3)GlcNAc
# In short: as §1
# [8] = molecular target: GalNAc(b1-4)Gal(b1-4)Glc
# In short: as §1
# [9] = molecular target: GalNAc(b1-4)GlcNAc
# In short: as §1
# [10] = molecular target: GalNAc(b1-4)GlcNAc(b1-2)Man
# In short: as §1
# [11] = molecular target: GalNAc(b1-4)GlcNAc(b1-2)Man(a1-3)[GalNAc(b1-4)GlcNAc(b1-2)Man(a1-6)]Man(b1-4)GlcNAc(b1-4)GlcNAc
# In short: as §1
# [12] = molecular target: GalNAc(b1-4)GlcNAc(b1-3)GalNAc(b1-4)GlcNAc
# In short: as §1
# [13] = molecular target: GalNAc(b1-4)GlcNAc6S
# In short: as §1
# [14] = molecular target: GalNAc(b1-6)GalNAc
# In short: as §1
# [15] = molecular target: GalNAc3S(b1-4)GlcNAc
# In short: as §1
# [16] = molecular target: GalNAc3S(b1-4)GlcNAc3S
# In short: as §1
# [17] = molecular target: GalNAc3S(b1-4)[Fuc(a1-3)]GlcNAc
# In short: as §1
# [18] = molecular target: GalNAc4S6S(b1-4)GlcNAc
# In short: as §1
# [19] = molecular target: GalNAc6S(b1-4)GlcNAc
# In short: as §1
# [20] = molecular target: Glc(a1-4)Glc
# In short: as §1
# [21] = molecular target: Glc(a1-4)Glc(a1-4)Glc(a1-4)Glc
# In short: as §1
# [22] = molecular target: Glc(a1-6)Glc(a1-6)Glc
# In short: as §1
# [23] = molecular target: Glc(a1-6)Glc(a1-6)Glc(a1-6)Glc
# In short: as §1
# [24] = molecular target: Glc(b1-4)Glc
# In short: as §1
# [25] = molecular target: Glc(b1-6)Glc
# In short: as §1
# [26] = molecular target: GlcA(b1-3)Gal
# In short: as §1
# [27] = molecular target: GlcA(b1-3)GlcNAc
# In short: as §1
# [28] = molecular target: GlcA(b1-6)Gal
# In short: as §1
# [29] = molecular target: GlcA3S(b1-3)Gal(b1-4)GlcNAc(b1-2)Man
# In short: as §1
# [30] = molecular target: GlcA3S(b1-3)Gal(b1-4)GlcNAc(b1-3)Gal(b1-4)Glc
# In short: as §1
# [31] = molecular target: GlcNAc(a1-3)Gal(b1-4)GlcNAc
# In short: as §1
# [32] = molecular target: GlcNAc(a1-4)Gal(b1-3)GlcNAc
# In short: as §1
# [33] = molecular target: GlcNAc(a1-4)Gal(b1-4)GalNAc
# In short: as §1
# [34] = molecular target: GlcNAc(a1-4)Gal(b1-4)GlcNAc
# In short: as §1
# [35] = molecular target: GlcNAc(a1-4)Gal(b1-4)GlcNAc(b1-3)Gal(b1-4)Glc
# In short: as §1
# [36] = molecular target: GlcNAc(a1-4)Gal(b1-4)GlcNAc(b1-3)Gal(b1-4)GlcNAc
# In short: as §1
# [37] = molecular target: GlcNAc(a1-4)Gal(b1-4)GlcNAc(b1-3)Gal(b1-4)GlcNAc(b1-3)Gal(b1-4)GlcNAc
# In short: as §1
# [38] = molecular target: GlcNAc(a1-4)Gal(b1-4)GlcNAc(b1-3)Gal(b1-4)[Fuc(a1-3)]GlcNAc(b1-3)Gal(b1-4)[Fuc(a1-3)]GlcNAc
# In short: as §1
binder,measurement,setting,value
SP15308C-bot-338-23-338 (Bacteroides ovatus) (protein) DEWTDEQFKQLISFKTQPGGWGVTDVHVRYANSAKYTYNLPVLVSGSTDNTDDRLVSFSLRDDTLDILNFEKFGNRPELYFRELPQKYYSFPKELTIPAGQSHALLPIEFSLDGLDDSQKWALPLKVCEDANGTYAVNPRKYYRTAVLRPILFNEFSGRFSGSSLLGTMAGESDIKFSSTEIKLNVVTDSIVFFYAGQRTEDYEDRINYKVFLQFTGDKVDSKKDLYKMKIWAENEKLKFNSYSTPTYKVSSEMDATKTYLKHTYIVISDIDFDFVDYTSVPNYEIEYNMKGGLSVSRDLDTRKPDEDQGSDSKWW,glycan array binding signal (z-score),[1],0.315
same,glycan array binding signal (z-score),[2],-0.133
same,glycan array binding signal (z-score),[3],1.16
same,glycan array binding signal (z-score),[4],-0.378
same,glycan array binding signal (z-score),[5],-0.515
same,glycan array binding signal (z-score),[6],-0.579
same,glycan array binding signal (z-score),[7],0.014
same,glycan array binding signal (z-score),[8],0.663
same,glycan array binding signal (z-score),[9],-0.202
same,glycan array binding signal (z-score),[10],0.109
same,glycan array binding signal (z-score),[11],1.03
same,glycan array binding signal (z-score),[12],0.135
same,glycan array binding signal (z-score),[13],-0.131
same,glycan array binding signal (z-score),[14],0.119
same,glycan array binding signal (z-score),[15],-0.876
same,glycan array binding signal (z-score),[16],-0.145
same,glycan array binding signal (z-score),[17],-0.053
same,glycan array binding signal (z-score),[18],-0.094
same,glycan array binding signal (z-score),[19],-0.492
same,glycan array binding signal (z-score),[20],-0.074
same,glycan array binding signal (z-score),[21],-0.105
same,glycan array binding signal (z-score),[22],-0.504
same,glycan array binding signal (z-score),[23],-0.322
same,glycan array binding signal (z-score),[24],-0.227
same,glycan array binding signal (z-score),[25],0.141
same,glycan array binding signal (z-score),[26],-0.033
same,glycan array binding signal (z-score),[27],1.1
same,glycan array binding signal (z-score),[28],-0.162
same,glycan array binding signal (z-score),[29],-0.462
same,glycan array binding signal (z-score),[30],-0.588
same,glycan array binding signal (z-score),[31],-0.287
same,glycan array binding signal (z-score),[32],0.674
same,glycan array binding signal (z-score),[33],0.249
same,glycan array binding signal (z-score),[34],-0.574
same,glycan array binding signal (z-score),[35],-0.788
same,glycan array binding signal (z-score),[36],-0.205
same,glycan array binding signal (z-score),[37],-0.311
same,glycan array binding signal (z-score),[38],1.81

# 2 neighbouring entries already listed:
binder,measurement,setting,value
SP15308C-bot-338-23-338 (Bacteroides ovatus) (protein) DEWTDEQFKQLISFKTQPGGWGVTDVHVRYANSAKYTYNLPVLVSGSTDNTDDRLVSFSLRDDTLDILNFEKFGNRPELYFRELPQKYYSFPKELTIPAGQSHALLPIEFSLDGLDDSQKWALPLKVCEDANGTYAVNPRKYYRTAVLRPILFNEFSGRFSGSSLLGTMAGESDIKFSSTEIKLNVVTDSIVFFYAGQRTEDYEDRINYKVFLQFTGDKVDSKKDLYKMKIWAENEKLKFNSYSTPTYKVSSEMDATKTYLKHTYIVISDIDFDFVDYTSVPNYEIEYNMKGGLSVSRDLDTRKPDEDQGSDSKWW,glycan array binding signal (z-score),[26],-0.033
same,glycan array binding signal (z-score),[27],1.1

# Reference: the supplement of paper PMC8728848
